PubChem BioAssay AID1224830 – NIAID – 2016
The whole screen tested about 18,000 reagents; shown is a random part of them. About 2,900 of them (16%) were called active. 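Calls are made per well; low scores hint the gene aids the LPS response, high scores that it dampens it.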 Repeated entries: four replicate wells of each siRNA pool.

- Screen: 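Genes whose knock-down alters the TNF-alpha reporter response to LPS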 (primary screen)
- System: human THP-1 monocytic leukaemia cells, TNF dual-luciferase reporter clone, PMA-differentiated to macrophage-like cells
- Knock-down reagent: siRNA pool against human genes, 50 nM
- Timing: LPS for 4 h, given about 3 days after siRNA transfection
- Conditions: bacterial LPS (TLR4 ligand), 10 ng/ml
- Measured: 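Ratio of firefly to renilla light, scaled to the plate median and expressed as a robust z-score per replicate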
- Direction: TNF reporter robust z-score: higher = stronger TNF reporter response to LPS
- Rule for the call: 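a well is active when its z-score exceeds 2.8 or falls below -1.5; control wells carry no call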

The first 2 records, ahead of the listing:
target | TNF reporter robust z-score | Call
MIDEAS | -1.81 | active
MIDEAS | -1.35 | inactive

Results, from the start:
target | TNF reporter robust z-score | Call
MIDEAS | -1.81 | active
MIDEAS | -1.35 | inactive
MIDEAS | -1.69 | active
MEGF11 | 0.09 | inactive
MEGF11 | -0.63 | inactive
MEGF11 | 0.17 | inactive
MEGF11 | -0.89 | inactive
CARD18 | -0.17 | inactive
CARD18 | 1.6 | inactive
CARD18 | 0.43 | inactive
CARD18 | 0.45 | inactive
C11orf16 | -0.79 | inactive
C11orf16 | -0.42 | inactive
C11orf16 | -0.72 | inactive
C11orf16 | 0.04 | inactive
TBC1D15 | 0.91 | inactive
TBC1D15 | -0.77 | inactive
TBC1D15 | -1.29 | inactive
TBC1D15 | -0.63 | inactive
ADORA2B | 0.45 | inactive
ADORA2B | 3.4 | active
ADORA2B | 0.67 | inactive
ADORA2B | 0.96 | inactive
MOB2 | -0.53 | inactive
MOB2 | 1.62 | inactive
MOB2 | 1.07 | inactive
MOB2 | 0.43 | inactive
STOML3 | 0.02 | inactive
STOML3 | -0.04 | inactive
STOML3 | -0.39 | inactive
STOML3 | -0.79 | inactive
PROC | -1.11 | inactive
PROC | 1.08 | inactive
PROC | 0.12 | inactive
PROC | 1.97 | inactive
FAM162A | 0.11 | inactive
FAM162A | 0.76 | inactive
FAM162A | 1.06 | inactive
FAM162A | 1.53 | inactive
USB1 | 0.25 | inactive
USB1 | 0.46 | inactive
USB1 | 1.38 | inactive
USB1 | 0.52 | inactive
STARD3NL | -0.65 | inactive
STARD3NL | -0.13 | inactive
STARD3NL | -0.37 | inactive
STARD3NL | -0.14 | inactive
ARMH3 | -0.54 | inactive
ARMH3 | 0.7 | inactive
ARMH3 | 1.3 | inactive
ARMH3 | 1.04 | inactive
ANP32E | 0.9 | inactive
ANP32E | -0.3 | inactive
ANP32E | -0.11 | inactive
ANP32E | 0.04 | inactive
BEND6 | 0.76 | inactive
BEND6 | 0.25 | inactive
BEND6 | 0.56 | inactive
BEND6 | 1.06 | inactive
SLC41A3 | 2.45 | inactive
SLC41A3 | 1.09 | inactive
SLC41A3 | 1.69 | inactive
SLC41A3 | 2 | inactive
ETV1 | -0.16 | inactive
ETV1 | -0.14 | inactive
ETV1 | -0.55 | inactive
ETV1 | 0.33 | inactive
PSMB6 | -0.21 | inactive
PSMB6 | -0.4 | inactive
PSMB6 | 0.08 | inactive
PSMB6 | -0.76 | inactive
SLCO1B7 | -1.54 | active
SLCO1B7 | -0.83 | inactive
SLCO1B7 | -1.47 | inactive
SLCO1B7 | -0.63 | inactive
ATP6V0D2 | 0.35 | inactive
ATP6V0D2 | 0.92 | inactive
ATP6V0D2 | 0.87 | inactive
ATP6V0D2 | 2.72 | inactive
NOMO2 | -0.72 | inactive
NOMO2 | -0.67 | inactive
NOMO2 | -0.9 | inactive
NOMO2 | -0.83 | inactive
CREBL2 | -0.14 | inactive
CREBL2 | 0.13 | inactive
CREBL2 | -0.49 | inactive
CREBL2 | 0.92 | inactive
TGFB1 | 0.27 | inactive
TGFB1 | 0.7 | inactive
TGFB1 | 1.65 | inactive
TGFB1 | 0.64 | inactive
SCML4 | -1.2 | inactive
SCML4 | -1.26 | inactive
SCML4 | -0.38 | inactive
SCML4 | -0.58 | inactive
OARD1 | 0.74 | inactive
OARD1 | 1.42 | inactive
OARD1 | -0.96 | inactive
OARD1 | 0.04 | inactive
TOP3A | -0.36 | inactive
TOP3A | 1.66 | inactive
TOP3A | -0.1 | inactive
TOP3A | -0.13 | inactive
NUP98 | -0.57 | inactive
NUP98 | -0.49 | inactive
NUP98 | 0.56 | inactive
NUP98 | -0.05 | inactive
GOT1L1 | 0.15 | inactive
GOT1L1 | 3.79 | active
GOT1L1 | 0.84 | inactive
GOT1L1 | 1.77 | inactive
SFMBT1 | 1.11 | inactive
SFMBT1 | 0.17 | inactive
SFMBT1 | 0.25 | inactive
SFMBT1 | -0.2 | inactive
IL21 | 0.46 | inactive
IL21 | 0.16 | inactive
IL21 | 0.36 | inactive
IL21 | 1.55 | inactive
TFDP2 | 0.77 | inactive
TFDP2 | 0.98 | inactive
TFDP2 | 1.27 | inactive
TFDP2 | 1.12 | inactive
SDHAF2 | -0.32 | inactive
SDHAF2 | 0.44 | inactive
SDHAF2 | -0.47 | inactive
SDHAF2 | -0.8 | inactive
SERPINE2 | 0.37 | inactive
SERPINE2 | 1.9 | inactive
SERPINE2 | 0.61 | inactive
SERPINE2 | 0.75 | inactive
RNF128 | 1.46 | inactive
RNF128 | 1.1 | inactive
RNF128 | 0.37 | inactive
RNF128 | -0.95 | inactive
PXDC1 | 0.46 | inactive
PXDC1 | 0.33 | inactive
PXDC1 | 0.44 | inactive
PXDC1 | 0.62 | inactive
MVP | 0.38 | inactive
MVP | 0.17 | inactive
MVP | -0.01 | inactive
MVP | 1.65 | inactive
